These results are taken from patent US8168667B2 (Galapagos NV, priority 2006, dated 2012).

By UniProt entry, the sequences of proteins in these tests, tags left out.
UniProt P10275, whole entry: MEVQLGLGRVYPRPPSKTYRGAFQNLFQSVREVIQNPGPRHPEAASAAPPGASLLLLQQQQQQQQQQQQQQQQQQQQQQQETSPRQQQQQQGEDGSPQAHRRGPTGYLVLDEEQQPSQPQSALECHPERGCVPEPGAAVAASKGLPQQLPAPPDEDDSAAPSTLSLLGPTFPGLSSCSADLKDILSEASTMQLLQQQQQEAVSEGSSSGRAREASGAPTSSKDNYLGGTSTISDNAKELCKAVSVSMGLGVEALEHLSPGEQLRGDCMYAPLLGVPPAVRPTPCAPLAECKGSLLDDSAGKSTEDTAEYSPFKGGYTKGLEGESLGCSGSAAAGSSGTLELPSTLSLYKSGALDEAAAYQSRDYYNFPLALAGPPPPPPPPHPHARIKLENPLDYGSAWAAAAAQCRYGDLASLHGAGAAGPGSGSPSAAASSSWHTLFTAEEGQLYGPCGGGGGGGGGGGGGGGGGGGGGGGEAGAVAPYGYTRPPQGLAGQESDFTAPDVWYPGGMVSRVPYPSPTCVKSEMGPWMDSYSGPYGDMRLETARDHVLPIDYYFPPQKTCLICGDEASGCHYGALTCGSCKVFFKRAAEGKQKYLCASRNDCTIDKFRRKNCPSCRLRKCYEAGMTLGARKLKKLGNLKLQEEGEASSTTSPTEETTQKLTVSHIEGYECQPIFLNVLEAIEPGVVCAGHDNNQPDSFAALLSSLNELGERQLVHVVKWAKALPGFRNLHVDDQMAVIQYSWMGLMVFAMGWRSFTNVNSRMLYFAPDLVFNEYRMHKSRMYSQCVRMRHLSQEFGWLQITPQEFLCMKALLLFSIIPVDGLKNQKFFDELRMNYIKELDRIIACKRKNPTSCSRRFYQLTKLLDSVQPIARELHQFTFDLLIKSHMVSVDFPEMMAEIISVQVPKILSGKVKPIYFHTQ

In this experiment the target is human androgen receptor (hAR) (Homo sapiens, UniProt P10275). In words: Functional response test: hAR transactivation (luciferase reporter) in HALP2 cells. The experiment is classed as cell-based. On the technique in general: Reporter assays use an easily measured gene product as a stand-in for the process of interest.

The structures given here were assigned with low confidence; some may be wrong.

Turning to `O=C1C(c2ccc(O)cc2)N(CCCCO)C(=O)N1c1ccc(F)c(Cl)c1` (centres unmarked), the “KSchild (nM) potency” value amounted to 244.95 nM. Further, the EC50 (as a rule, the concentration that produces a half-maximal response) (read-out: EC50 (nM) Kd, agonism, HALP2 cells (HeLa, hAR + ARE-luciferase), 20 hours at 37° C.) was 245 nM.
